Results taken from the supplement of paper PMC5949888.
± gives the standard deviation of the averaged measurements. Most values lie at the floor of the assay. Slopes are relative: functional sequences can read slightly below zero.

Each substance was assayed on Saccharomyces cerevisiae PS128 hsf1 delta, HSF1(1-493) fusion (assay: growth estimate (transactivation domain function in HSF1 fusion, heat-shock survival) (a.u. (slope of normalised read count over time)); higher = stronger growth at 37°C, i.e. more transactivation activity). Details: library: random library.
Procedure: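 Random 60-nt DNA library encoding peptides of up to 20 aa, fused to the C-terminus of yeast HSF1 residues 1-493 (C-terminal TAD deleted) and expressed from the native HSF1 promoter on a CEN plasmid in hsf1-deleted S. cerevisiae PS128. Cells were selected at 37°C on -trp 5-FOA plates for 0, 2, 4, 6 and 8 days and amplicons were sequenced. Growth estimate is the slope of a robust linear fit of total-sum-normalised read counts (normalised to the first time point) over time, using at least 2 replicates. Sequences are classed functional (TAD activity) above a threshold of -0.13, set from stop-codon control sequences.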
With ASLIGGVWARFDGASEDRRR the growth estimate was -0.198. In the case of ASLRGSIRQIGVEGIRHKF, the growth estimate is reported as < -0.25. ASMETFVEP was tested, and the growth estimate was < -0.25. With ASMGFSGLEVAVSAENLSTP the growth estimate was < -0.25. In the case of ASMYVKAKYPPGSSIVALFP, the growth estimate is reported as < -0.25. In the case of ASNAPAIGGSGYRKHVVVRS, the growth estimate is reported as < -0.25. With ASNAVLVLHGRGVCSQSQQT the growth estimate was < -0.25. ASPLFPACGTPATPNRDTET was tested, and the growth estimate was < -0.25. ASPYRQALHLHSPSLSYCPH was tested, and the growth estimate was < -0.25. ASQETRVRPGKRAYFLPVVE was tested, and the growth estimate was < -0.25. In the case of ASQNVQLNQGSVVRGMGSAW, the growth estimate is reported as < -0.25. For ASQRARVWAA, the growth estimate was < -0.25. ASRATKWRPRGRPRDAGRRG was tested, and the growth estimate was < -0.25. For ASRLVNQSKNLVILCVMSTP, the growth estimate was < -0.25. With ASRLWRHIRVFGFLSRSAER the growth estimate was < -0.25. With ASRRALRVRLAGPGVYIATP the growth estimate was < -0.25. For ASRRCCQVQRAAVWRCVSRP, the growth estimate was < -0.25. ASSAIRNYTDISVTCEHLRR was tested, and the growth estimate was -0.0374. In the case of ASSNWSSREGDELLRWRRVS, the growth estimate is reported as < -0.25. For ASSPRVI, the growth estimate was < -0.25. With ASSWVSRCYVLGQSSH the growth estimate was < -0.25. In the case of ASTAGSESGKLPRSGIHYGS, the growth estimate is reported as < -0.25. In the case of ASTL, the growth estimate is reported as < -0.25. Work on ASVEECALRGGAFLAETGRV yielded a growth estimate of -0.23. ASVIHPAGLLSQLGYLDRIH was tested, and the growth estimate was < -0.25. For ASVNHEPLHPETGRCASCVG, the growth estimate was < -0.25. With ASWK the growth estimate was < -0.25. ASWSQRTCMWQRPRRCF was tested, and the growth estimate was -0.174. ASYCVPLVLHVRGDSDRPSR was tested, and the growth estimate was < -0.25. For ASYGTSRRKPSNYSPFASNR, the growth estimate was < -0.25. ASYILSAL was tested, and the growth estimate was < -0.25. In the case of ATAIQIPKLRRHADGSQTTS, the growth estimate is reported as < -0.25. In the case of ATAIWNC, the growth estimate is reported as < -0.25. With ATAP the growth estimate was < -0.25. ATAR was tested, and the growth estimate was < -0.25. ATCL was tested, and the growth estimate was < -0.25. For ATCVDWKSSLQGVEKCHQ, the growth estimate was < -0.25. In the case of ATDQGSNWM, the growth estimate is reported as < -0.25. With ATERRNCMVYMDPETTSVAT the growth estimate was < -0.25. For ATESVFCVKGGRNLAHRT, the growth estimate was < -0.25. For ATEVGR, the growth estimate was < -0.25. In the case of ATGAMVAKRP, the growth estimate is reported as < -0.25. For ATGEQWSPSTLLQG, the growth estimate was < -0.25. For ATGISRLF, the growth estimate was < -0.25. With ATGTRA the growth estimate was < -0.25. In the case of ATIPDRLR, the growth estimate is reported as -0.243. ATIYQRMLSLQGTRSYSRLA was tested, and the growth estimate was < -0.25. With ATKPENLEVRREGSGSSSLL the growth estimate was < -0.25. ATLA was tested, and the growth estimate was < -0.25. For ATLHALIGLRLGGYTVISVP, the growth estimate was < -0.25. ATLKEFSFALFAGRI was tested, and the growth estimate was < -0.25. In the case of ATLMERLRNRIASIGIMTQA, the growth estimate is reported as < -0.25. ATMGIAMYGHKRHSCGNSLG was tested, and the growth estimate was < -0.25. In the case of ATNGVGPG, the growth estimate is reported as < -0.25. With ATNNVRSRPSRVE the growth estimate was < -0.25. In the case of ATPDASLTRGYSMLSIVVTQ, the growth estimate is reported as < -0.25. For ATPGQEECEQ, the growth estimate was < -0.25. ATPRGEGHLRPRVSEYIGSY was tested, and the growth estimate was < -0.25. In the case of ATS, the growth estimate is reported as -0.247 ± 0.0053. Substance ATSLSYTVV has a growth estimate of -0.0894. For ATT, the growth estimate was < -0.25. In the case of ATTCILEALSRRCAS, the growth estimate is reported as < -0.25. In the case of ATTRAARDSEKRRNILVPGC, the growth estimate is reported as < -0.25. In the case of ATTRTALYYDR, the growth estimate is reported as -0.246. Substance AVAENPEW has a growth estimate of -0.246. With AVATAGGLLGSGSRATSAVS the growth estimate was < -0.25. With AVCPNRL the growth estimate was < -0.25. With AVCSPGTGVSRALGRLRSVR the growth estimate was < -0.25. For AVFMGGLKGLG, the growth estimate was < -0.25. For AVFTSRRRKGHHEIVLCSTI, the growth estimate was < -0.25. AVFV was tested, and the growth estimate was < -0.25. In the case of AVGAKRGRTSFCAHATEVS, the growth estimate is reported as < -0.25. For AVGAMDFERESSENSVLITA, the growth estimate was < -0.25. For AVGEKELAEATRQRNSVARV, the growth estimate was < -0.25. AVGHHQGVASKLRASPVTSI was tested, and the growth estimate was < -0.25. For AVGNGEDARDVTGKQA, the growth estimate was < -0.25. With AVHRRLSTYRPEPYL the growth estimate was < -0.25. With AVILASWYPRTTMWKCP the growth estimate was < -0.25. With AVKGTSSY the growth estimate was < -0.25. With AVKVADKTTWIRSSVNGGVR the growth estimate was < -0.25. AVKVVALSAFVTECSSSRLQ was tested, and the growth estimate was < -0.25. In the case of AVLGLPRARCLPPLSES, the growth estimate is reported as < -0.25. In the case of AVLGPVDNESAPAFMQAWAP, the growth estimate is reported as < -0.25. For AVLILAWVL, the growth estimate was < -0.25. For AVLLLNKEQGLQSNKLKRGG, the growth estimate was < -0.25. For AVLN, the growth estimate was < -0.25. For AVLPEGHV, the growth estimate was < -0.25. In the case of AVMVP, the growth estimate is reported as < -0.25. AVNISLLFKRAFAVAFMGDA was tested, and the growth estimate was < -0.25. For AVPE, the growth estimate was < -0.25. For AVPHHPTQFIVATFTSHCSS, the growth estimate was < -0.25. For AVPQSVPETFTMSDYRR, the growth estimate was < -0.25. For AVQKFVRPGKGNGIATSLLE, the growth estimate was < -0.25. With AVRCSVSRAGNVRVRTFSTR the growth estimate was < -0.25. AVRFHGMPLDTFYRVGSGPA showed a growth estimate of -0.243. For AVRILMQRLWRLTTSLDQTG, the growth estimate was < -0.25. For AVRMTNSRELNPKRRQRI, the growth estimate was < -0.25. With AVRRGG the growth estimate was < -0.25. For AVRRPTLSGRGLPANEWNIE, the growth estimate was < -0.25. In the case of AVRRY, the growth estimate is reported as < -0.25. For AVRTGELSERL, the growth estimate was < -0.25. AVRYSVCRFQPGEIKSCEHA was tested, and the growth estimate was < -0.25. In the case of AVSGATKEL, the growth estimate is reported as < -0.25. AVSPSG was tested, and the growth estimate was < -0.25. With AVSRILCVSERNAFAWASN the growth estimate was < -0.25. With AVSSEITRLNYCVSYSPSLS the growth estimate was < -0.25. AVSYSRSWDCSERIR was tested, and the growth estimate was < -0.25. AVTKGTRHSRSQNGARTSSM was tested, and the growth estimate was < -0.25. AVTMAETHNSN was tested, and the growth estimate was < -0.25. AVVARRYG was tested, and the growth estimate was < -0.25. In the case of AVVVNQR, the growth estimate is reported as < -0.25. With AVYYSQDSGA the growth estimate was < -0.25. For AWDAGAVGRNLTLHVVRLKS, the growth estimate was < -0.25. For AWIV, the growth estimate was < -0.25. AWL was tested, and the growth estimate was < -0.25. With AWLVR the growth estimate was < -0.25. In the case of AWPCQRV, the growth estimate is reported as < -0.25. In the case of AWQTQGVHIRSPQ, the growth estimate is reported as < -0.25. AWTRCKE was tested, and the growth estimate was -0.0464. For AWTSEKLG, the growth estimate was < -0.25. With AWVSCRDAETQLERRYGCHL the growth estimate was < -0.25. In the case of AWWVGRDASELMAWARGITG, the growth estimate is reported as < -0.25. With AYAWCHMFNGPPQLKYLGLV the growth estimate was < -0.25. With AYCLRLHMAGLGRVRFQPPL the growth estimate was < -0.25. With AYGHLIGRYGFLCYPNGGGP the growth estimate was < -0.25. AYGMHAKGITETHDRQKLRP was tested, and the growth estimate was < -0.25. For AYLGDPFSNRTDN, the growth estimate was < -0.25. In the case of AYLPLFLRDTSQKHITCVID, the growth estimate is reported as < -0.25. With AYLRRFEAAFNHHPRWTSFI the growth estimate was < -0.25. AYLRSLGAEPNLPGDVEREV was tested, and the growth estimate was < -0.25. AYNRIYYWAASRPSVKDPVE was tested, and the growth estimate was < -0.25. AYPME was tested, and the growth estimate was < -0.25. For AYRVSMAAAKSDQVSE, the growth estimate was < -0.25. In the case of AYSVEALTATISAPFSLNSG, the growth estimate is reported as < -0.25. In the case of AYSVGD, the growth estimate is reported as < -0.25. AYVTGWNDRIRHLLP was tested, and the growth estimate was < -0.25. With AYVVLRYSTFALQ the growth estimate was < -0.25. With AYYM the growth estimate was < -0.25. With CAARRIRNSPMYPMSTRPPK the growth estimate was < -0.25. With CAARSVGETQGRL the growth estimate was < -0.25. For CAASSEPTTVRPM, the growth estimate was < -0.25. CAAVPPDNVLFFGHRP was tested, and the growth estimate was < -0.25. In the case of CACALPNSRCLKIQTLPTMR, the growth estimate is reported as < -0.25. In the case of CACGIRPFVEAV, the growth estimate is reported as < -0.25. CADCQHTDTSVLETAEKEPP was tested, and the growth estimate was < -0.25.
